Results as given in paper PMC6544120 (Chemical Science, 2019).

Assay: general procedure: Fmoc solid-phase peptide synthesis; 2-Chlorotrityl resin (1.1 mmol g-1 loading capacity); HCTU; DMTMM for cyclisation
Conditions: late stage modification step

In the case of “Cyclo(L-Trp–D-Leu–L-Lys–D-Leu–L-Trp–D-Leu–L-Lys–D-Leu)”, the step yield is reported as 95%.
